Data on three molecules can be found in patent US20100021384A1 (INSTITUT PASTEUR, published 2010).

Amino acid sequences for entries named in this document (tags omitted).
UniProt P14136: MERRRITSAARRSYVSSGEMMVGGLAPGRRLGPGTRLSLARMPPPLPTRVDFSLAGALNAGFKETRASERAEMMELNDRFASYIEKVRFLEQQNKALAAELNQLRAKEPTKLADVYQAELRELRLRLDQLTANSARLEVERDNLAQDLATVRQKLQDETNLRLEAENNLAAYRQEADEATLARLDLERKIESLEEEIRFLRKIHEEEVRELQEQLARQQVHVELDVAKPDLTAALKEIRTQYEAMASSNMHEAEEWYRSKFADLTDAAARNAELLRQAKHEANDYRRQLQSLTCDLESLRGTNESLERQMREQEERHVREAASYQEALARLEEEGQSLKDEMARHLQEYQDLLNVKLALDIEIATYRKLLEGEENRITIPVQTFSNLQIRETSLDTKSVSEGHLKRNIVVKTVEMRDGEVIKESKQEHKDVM

Experiment [1] deals with GFAP (glial fibrillary acidic protein) from normal human brain (human) (UniProt P14136). The experiment is described as follows: ELISA screening of periplasmic clones on coated GFAP. (In an ELISA, binding on a coated surface is turned into a signal by an enzyme label.)
The target is the same in experiment [2]. The experiment can be described thus: ELISA on coated GFAP.
Experiment [3] shares this target. The experiment is described as follows: competition ELISA in solution (Friguet method), GFAP in solution, GFAP-coated plate.

Residue numbers refer to the chain shown, from its start. These are yes or no findings as the source states them, for the method shown. Some entries that bind do so weakly or less than the wild type.

B1: VHH-E9 (VHH)
VHH: DVQLQVSGGGSVQPGGSLRLSCAASGFTFSNYAMYWLRQAPGKGIEWVSRIGPGGSHTEYADSVKGRFTISRDNAKNTLSLQMNSLKPEDTAVYYCAITQQGSGRGQGTQVTVSS
notes: Alpaca VHH selected by ribosome display against human GFAP; expressed in E. coli periplasm from pET22 with a His-tag and purified by IMAC; same molecule; also called anti-GFAP VHH-E9; native VHH-E9; not shown: His-tag (His6) from pET22 expression
B1: the binding result in experiment [1] and in experiment [2] was “binds” each time.

B2: VHH-E3 (VHH)
VHH: B1 VHH with S25P, T69A, V93A, Q107R
notes: Alpaca VHH selected by ribosome display against human GFAP; expressed in E. coli periplasm from pET22 with a His-tag and purified by IMAC; also called anti-GFAP VHH-E3; not shown: His-tag from pET22 expression
For B2, the binding result in experiment [1], in experiment [3] and in experiment [2] was “binds” throughout.

B3: VHH-A10 (VHH)
VHH: DVQLRASGGGLVQPGGSLRLSCAASGFTFSNYAMYWLRQAPGKGIEWVSRIGPGGSHTEYADSVKGRFTISRDNAKNTLSLQMNSLKPEDTAVYYCAITQQGSGRGQETQVTVSSAAALEHHHHHH
notes: Alpaca VHH selected by ribosome display against human GFAP; expressed in E. coli periplasm from pET22 with a His-tag and purified by IMAC; also called anti-GFAP VHH-A10; not shown: His-tag from pET22 expression
B3: the binding entry in experiment [1] and in experiment [2] was “binds” throughout.
